Measurements from patent US8906897B2 (Obschestvo S Ogranichennoi Otvetstvennostiyu …, priority 2009, dated 2014).

Test: general procedure: Fmoc solid-phase peptide synthesis; 2-chlorotrityl chloride polymer

N^α-[6(7)-(Protohemin IX)-yl]-ArgArgTrpTrpArgPhe-OH (RRWWRF; N-terminal protohemin IX; peptide of hemin deriative)
isolated yield (whole synthesis): 25%

Protohemin IX 6(7)-Mono[Cyclo(Orn-Leu-D-Phe-Pro-Val)2])amide
conjugation yield (conjugation step): 15%
